Test results reported in article PMC4603762.
These are yes or no findings as the source states them, for the method shown. Binding seen in cells or lysates may run through a third protein. Some entries that bind do so weakly or less than the wild type.

Chains of the proteins cited; added tags and fusions are not shown. Residues count along the entry.
UniProt Q04206: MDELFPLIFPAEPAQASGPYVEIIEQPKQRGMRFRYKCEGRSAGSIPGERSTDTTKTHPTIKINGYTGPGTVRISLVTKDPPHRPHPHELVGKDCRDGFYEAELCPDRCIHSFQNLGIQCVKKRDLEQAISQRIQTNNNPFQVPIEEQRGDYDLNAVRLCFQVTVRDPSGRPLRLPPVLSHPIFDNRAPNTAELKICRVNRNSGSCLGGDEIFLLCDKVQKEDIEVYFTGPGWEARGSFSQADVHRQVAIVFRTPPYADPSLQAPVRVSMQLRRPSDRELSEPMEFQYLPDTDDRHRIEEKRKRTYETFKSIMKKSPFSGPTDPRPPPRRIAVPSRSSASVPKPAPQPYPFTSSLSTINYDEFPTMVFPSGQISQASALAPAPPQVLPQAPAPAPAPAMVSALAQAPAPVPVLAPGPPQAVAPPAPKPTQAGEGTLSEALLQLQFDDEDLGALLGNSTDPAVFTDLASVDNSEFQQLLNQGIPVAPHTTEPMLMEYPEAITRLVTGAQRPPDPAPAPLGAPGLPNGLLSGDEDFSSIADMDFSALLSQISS
UniProt P55854, residues 1-92: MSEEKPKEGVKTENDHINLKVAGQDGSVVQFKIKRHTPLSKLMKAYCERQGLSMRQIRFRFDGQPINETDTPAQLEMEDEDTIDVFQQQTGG
UniProt P61956: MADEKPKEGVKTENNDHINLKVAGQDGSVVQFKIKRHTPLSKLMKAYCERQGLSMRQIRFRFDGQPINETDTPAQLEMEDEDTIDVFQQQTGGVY

Target: NF-κB p65 (human (endogenous in SMMC7721)) (UniProt Q04206)
Experiment: co-IP; SMMC7721 cells co-transfected with myc-Ubc9 and GFP-SUMO2 or GFP-SUMO3, lysed 24 h after transfection, with or without TNF-α (10 ng/ml, 30 min); anti-p65 antibody with Protein A agarose, 4 h at 4 °C; lysis buffer 50 mM HEPES pH 7.4, 150 mM NaCl, 2 mM EGTA, 0.1 % Triton X-100, NEM; isotype IgG as negative control; western blot

binding	Substance
binds weakly	GFP-SUMO3 (from UniProt P55854 1-92)
binds weakly	GFP-SUMO2 (from UniProt P61956 1-95)
